Measured data: PubChem BioAssay AID1259425 (University of Nebraska Medical Center, 2018)

- Test: 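Compare each knockdown with KSR1 silencing using changes in marker transcripts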 (primary screen)
- Cells: HCT116 human colon cancer cells
- Reagent: siRNA pool against human genes, 50 nM siRNA
- Measurement: 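mRNA of six signature genes measured together by branched-DNA assay after 50 nM siRNA pool, blank removed, divided by geometric mean of two housekeeping genes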
- Direction: BNIP3L mRNA: higher = more BNIP3L transcript after knockdown; NDRG1 mRNA: higher = more NDRG1 transcript after knockdown; BNIP3 mRNA: higher = more BNIP3 transcript after knockdown; ALDOC mRNA: higher = more ALDOC transcript after knockdown; ACSL5 mRNA: higher = more ACSL5 transcript after knockdown
Here is a random part of about 14,000 deposited reagents. No sequences are given here. Not stated in the record: the time to read-out.

target,"BNIP3L mRNA, set 1","NDRG1 mRNA, set 1","BNIP3 mRNA, set 1","ALDOC mRNA, set 1","ACSL5 mRNA, set 1"
ZNF839,0.19,0.302,0.402,0.0183,0.258
EXOSC8,0.272,0.14,0.493,0.0337,0.112
BRF2,0.0819,0.133,0.271,0.00706,0.227
IL15RA,0.157,0.129,0.333,0.0447,0.114
RAB11FIP2,0.142,0.593,0.437,0.0249,0.128
CAPS2,0.159,0.462,0.293,0.0489,0.203
CHCHD6,0.181,0.158,0.263,0.101,0.185
AMT,0.117,0.354,0.353,0.000197,0.137
SKP1,0.0456,0.164,0.213,0.0158,0.106
ZDHHC6,0.268,0.289,0.784,0.0628,0.318
TACC2,0.147,0.0878,0.486,0.0435,0.115
AP1B1,0.291,0.433,0.763,0.0793,0.237
HNRNPF,0.189,0.379,0.276,0.0205,0.0928
RPL36A,0.196,0.31,0.365,0.0136,0.241
FBXO40,0.125,0.193,0.242,0.0154,0.219
SLC31A1,0.0949,0.554,0.3,0.0189,0.312
ABAT,0.0459,0.276,0.282,0.0152,0.255
ETFB,0.0965,0.208,0.248,0.0233,0.167
CCR2,0.118,0.237,0.307,0.032,0.101
NOL10,0.0615,0.258,0.215,0.039,0.255
ENAM,0.275,0.274,0.374,0.106,0.197
NPC2,0.159,0.413,0.205,0.0384,0.141
MAP3K8,0.148,0.125,0.324,0.0102,0.484
COQ3,0.181,0.306,0.214,0.0262,0.181
CYBA,0.0503,0.894,0.404,0.0132,0.47
XPO7,0.221,0.0602,0.324,0.0686,0.127
CEACAM3,0.122,0.0754,0.376,0.0473,0.191
KCNB2,0.0896,0.739,0.418,0.0151,0.14
CYP17A1,0.0461,0.0967,0.299,0.0289,0.154
PXDN,0.0499,0.166,0.217,0.0159,0.156
TMCO6,0.0704,0.242,0.399,0.0175,0.198
ADGRE2,0.0929,0.0613,0.275,0.027,0.0467
PMAIP1,0.0875,0.201,0.269,0.0155,0.213

Continued (6 carried over from the part before).
target,"BNIP3L mRNA, set 1","NDRG1 mRNA, set 1","BNIP3 mRNA, set 1","ALDOC mRNA, set 1","ACSL5 mRNA, set 1"
KCNB2,0.0896,0.739,0.418,0.0151,0.14
CYP17A1,0.0461,0.0967,0.299,0.0289,0.154
PXDN,0.0499,0.166,0.217,0.0159,0.156
TMCO6,0.0704,0.242,0.399,0.0175,0.198
ADGRE2,0.0929,0.0613,0.275,0.027,0.0467
PMAIP1,0.0875,0.201,0.269,0.0155,0.213
PDPN,0.593,2,0.629,0.153,0.506
KCTD3,0.158,0.107,0.435,0.0254,0.123
BBX,0.13,0.226,0.183,0.0491,0.205
FBP1,0.113,0.17,0.315,0.0182,0.244
FRG1,0.0851,0.249,0.315,0.0182,0.153
TAAR6,0.114,0.117,0.311,0.0524,0.217
RFX3,0.0647,0.122,0.289,0.0194,0.215
SQSTM1,0.09,0.108,0.468,0.0315,0.217
USP34,0.0876,0.141,0.341,0.027,0.103
JHY,0.142,0.13,0.248,0.0255,0.206
KRT19,0.163,0.262,0.295,0.0292,0.206
RTCA,0.0658,0.148,0.313,0.0149,0.082
IL12A,0.109,0.176,0.406,0.0206,0.233
CLN5,0.19,0.221,0.501,0.0556,0.27
ARSL,0.108,0.156,0.368,0.026,0.226
RAD23A,0.0751,0.394,0.256,0.00368,0.347
ADGRG6,0.226,0.368,0.704,0.037,0.225
TVP23B,0.0868,0.352,0.406,0.0115,0.235
GNAI2,0.104,0.103,0.262,0.0186,0.075
CHRNB2,0.0994,0.323,0.297,0.103,0.245
CAPN7,0.0755,0.114,0.358,0.0177,0.0828
LY6G6C,0.0782,0.142,0.236,0.0253,0.118
SH3BGRL,0.0768,0.264,0.357,0.0805,0.131
PHYHIPL,0.141,0.182,0.303,0.0613,0.218
CLDN10,0.0557,0.276,0.328,0.0244,0.266
DDX24,0.441,0.707,0.689,0.071,0.834
YME1L1,0.0485,0.143,0.26,0.0457,0.177
UBE3A,0.0403,0.0672,0.185,0.0201,0.112
SKIC2,0.15,0.173,0.336,0.0539,0.131
INSAF (retired record),0.0525,0.287,0.223,0.013,0.211
